Positions count from the first letter of the chain named. Results are given in words; binding and its absence hold for the method and conditions named. Some binding calls cover weakened binding; strength is not graded here. For part of these data: Tags and fused reporters may be left off the sequences shown. Each block holds one binder with its values, some of them ahead of it.
Assays:
[1] = target: Mouse serum albumin (mouse) (UniProt P07724); test: Octet BLI
[2] = target: Mouse serum albumin (mouse) (UniProt P07724); test: Octet RED96 BLI, antibody on AHC biosensor, albumin at 200 nM
[3] = target: Mouse serum albumin (mouse) (UniProt P07724); test: BLI (Octet RED96): AWT-P367 loaded on AHC biosensor, dipped into mouse albumin at 200 nM
[4] = target: Cynomolgus monkey serum albumin (cynomolgus monkey) (UniProt A2V9Z4); test: BLI, Fc fusion on protein A biosensor, albumin at 400, 200 and 100 nM
[5] = target: Human serum albumin (human) (UniProt P02768); test: as above
[6] = target: Mouse serum albumin (mouse) (UniProt P07724); test: as above
[7] = target: Cynomolgus monkey serum albumin (cynomolgus monkey) (UniProt A2V9Z4); test: BLI, P367-IgG1 Fc on protein A biosensor, albumin at 400, 200 and 100 nM
[8] = target: Human serum albumin (human) (UniProt P02768); test: as above
[9] = target: Mouse serum albumin (mouse) (UniProt P07724); test: as above
[10] = target: Cynomolgus monkey serum albumin (cynomolgus monkey) (UniProt A2V9Z4); test: Octet BLI
[11] = target: Human serum albumin (human) (UniProt P02768); test: Octet BLI
[12] = target: Cynomolgus monkey serum albumin (cynomolgus monkey) (UniProt A2V9Z4); test: Octet RED96 BLI, antibody on AHC biosensor, albumin at 200 nM
[13] = target: Human serum albumin (human) (UniProt P02768); test: as above
[14] = target: Cynomolgus monkey serum albumin (cynomolgus monkey) (UniProt A2V9Z4); test: BLI (Octet RED96): AWT-P494 loaded on AHC biosensor, dipped into cyno albumin at 200 nM
[15] = target: Human serum albumin (human) (UniProt P02768); test: BLI (Octet RED96): AWT-P494 loaded on AHC biosensor, dipped into human albumin at 200 nM
[16] = target: Mouse serum albumin (mouse) (UniProt P07724); test: BLI (Octet RED96): AWT-P494 loaded on AHC biosensor, dipped into mouse albumin at 200 nM

Protein sequences, listed by entry. Tags and fused reporters are not part of them. Residues count along the entry.
UniProt P07724, residues 25-608: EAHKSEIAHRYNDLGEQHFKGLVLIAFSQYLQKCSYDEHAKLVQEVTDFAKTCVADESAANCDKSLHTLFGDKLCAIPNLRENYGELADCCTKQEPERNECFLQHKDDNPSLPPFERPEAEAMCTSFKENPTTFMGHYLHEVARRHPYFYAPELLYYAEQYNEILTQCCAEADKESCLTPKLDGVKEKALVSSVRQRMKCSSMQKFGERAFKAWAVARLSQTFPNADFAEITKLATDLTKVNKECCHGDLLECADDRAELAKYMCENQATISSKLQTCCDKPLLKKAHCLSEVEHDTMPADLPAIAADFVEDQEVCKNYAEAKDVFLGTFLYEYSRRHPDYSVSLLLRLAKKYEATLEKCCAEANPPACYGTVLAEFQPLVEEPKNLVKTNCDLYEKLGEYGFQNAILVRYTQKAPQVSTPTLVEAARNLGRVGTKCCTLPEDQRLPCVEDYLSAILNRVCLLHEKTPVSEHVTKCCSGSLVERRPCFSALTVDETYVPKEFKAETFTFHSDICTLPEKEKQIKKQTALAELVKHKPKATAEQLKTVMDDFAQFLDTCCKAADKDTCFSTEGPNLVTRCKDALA
UniProt A2V9Z4, residues 25-608: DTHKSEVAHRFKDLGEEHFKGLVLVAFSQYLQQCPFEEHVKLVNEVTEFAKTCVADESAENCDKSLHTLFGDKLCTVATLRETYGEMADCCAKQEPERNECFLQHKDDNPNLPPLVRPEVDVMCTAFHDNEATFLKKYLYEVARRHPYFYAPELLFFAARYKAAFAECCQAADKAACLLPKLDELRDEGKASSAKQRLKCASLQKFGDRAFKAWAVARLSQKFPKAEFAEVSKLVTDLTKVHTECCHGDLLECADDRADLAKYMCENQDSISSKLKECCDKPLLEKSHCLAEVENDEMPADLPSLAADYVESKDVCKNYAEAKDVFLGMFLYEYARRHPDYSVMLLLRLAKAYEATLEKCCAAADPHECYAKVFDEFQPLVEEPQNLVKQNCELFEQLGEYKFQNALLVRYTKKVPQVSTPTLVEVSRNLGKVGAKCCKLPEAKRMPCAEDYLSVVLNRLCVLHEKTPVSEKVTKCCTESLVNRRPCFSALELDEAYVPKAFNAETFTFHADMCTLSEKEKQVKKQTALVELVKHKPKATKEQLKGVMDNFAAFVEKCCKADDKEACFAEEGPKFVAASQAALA
UniProt P02768, residues 25-609: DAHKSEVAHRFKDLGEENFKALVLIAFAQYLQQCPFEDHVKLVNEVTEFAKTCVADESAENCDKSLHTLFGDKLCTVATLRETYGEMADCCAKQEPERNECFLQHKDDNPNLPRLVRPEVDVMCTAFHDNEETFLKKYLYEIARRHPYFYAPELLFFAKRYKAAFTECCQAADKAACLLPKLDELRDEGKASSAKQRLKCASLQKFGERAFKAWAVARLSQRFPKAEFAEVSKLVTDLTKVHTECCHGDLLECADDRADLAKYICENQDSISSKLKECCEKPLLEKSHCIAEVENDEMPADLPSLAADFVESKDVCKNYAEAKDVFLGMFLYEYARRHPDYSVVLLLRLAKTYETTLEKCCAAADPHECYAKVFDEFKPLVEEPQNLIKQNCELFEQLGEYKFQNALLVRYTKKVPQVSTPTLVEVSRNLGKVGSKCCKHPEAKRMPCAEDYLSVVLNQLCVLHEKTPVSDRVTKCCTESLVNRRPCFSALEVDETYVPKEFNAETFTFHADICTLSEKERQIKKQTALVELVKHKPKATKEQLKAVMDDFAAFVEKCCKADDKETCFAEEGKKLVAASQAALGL

binding [1]: binds
binding [2]: binds
binding [3]: binds
B1: Anti-HSA single domain (VHH) antibody P367 (VHH)
VHH: QVQLVESGGGLVQPGGSLRLSCAASGSTWSINTLAWYRQAPGKQRDLVARISSGGSTHYADSVKGRFTVSRDNAENTLVLQMNSLKPEDTAVYYCYAQSTWYPPSWGQGTQVTVSS

binding [4]: binds
binding [5]: binds
binding [6]: binds
binding [7]: binds
binding [8]: binds
binding [9]: binds
B2: P367-IgG1 Fc fusion protein (Fc fusion, not shown: a dimerising Fc or GST)
chain: B1 VHH

binding [10]: binds
binding [11]: binds
binding [1]: binds
binding [12]: binds
binding [13]: binds
binding [2]: binds
binding [14]: binds
binding [15]: binds
binding [16]: binds
B3: Humanized anti-HSA antibody AWT-P494 (VHH)
VHH: B1 VHH with Q1E, H58Y, V69I, A74S, E75K, V79Y, K86R, P87A, Q111L

Source: US20210230242A1
